# Experimental data reported in the supplement of paper PMC3334620.
# Whole data set: some 33,000 sequences, median “E-score (-0.5 to 0.5)” near -0.016, cut for the highest 2% near 0.3. The list shows a part of the results.
# Biological target: T1, Yer184c (UniProt P39961)
# T1 sequence: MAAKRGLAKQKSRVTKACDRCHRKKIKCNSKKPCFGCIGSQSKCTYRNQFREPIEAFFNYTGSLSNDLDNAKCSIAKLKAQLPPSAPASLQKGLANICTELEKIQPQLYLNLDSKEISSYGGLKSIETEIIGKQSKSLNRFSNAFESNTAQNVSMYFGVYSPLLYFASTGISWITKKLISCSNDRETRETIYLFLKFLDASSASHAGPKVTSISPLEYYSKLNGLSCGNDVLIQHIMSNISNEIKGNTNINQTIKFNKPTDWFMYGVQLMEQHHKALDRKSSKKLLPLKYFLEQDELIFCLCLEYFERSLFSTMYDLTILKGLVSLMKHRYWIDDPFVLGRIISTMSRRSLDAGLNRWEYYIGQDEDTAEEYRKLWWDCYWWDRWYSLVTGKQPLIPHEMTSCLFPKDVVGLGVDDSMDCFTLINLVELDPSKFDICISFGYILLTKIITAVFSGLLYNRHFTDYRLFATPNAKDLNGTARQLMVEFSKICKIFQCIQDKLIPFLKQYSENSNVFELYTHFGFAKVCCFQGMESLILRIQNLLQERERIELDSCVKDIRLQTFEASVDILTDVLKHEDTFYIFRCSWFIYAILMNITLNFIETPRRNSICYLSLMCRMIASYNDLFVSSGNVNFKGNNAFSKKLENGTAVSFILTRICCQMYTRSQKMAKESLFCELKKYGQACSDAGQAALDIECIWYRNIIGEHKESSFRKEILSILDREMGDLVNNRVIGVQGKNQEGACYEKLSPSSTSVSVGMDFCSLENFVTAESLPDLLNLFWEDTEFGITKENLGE
# Assay: PBM E-score (8-mer binding enrichment) (E-score (-0.5 to 0.5)); higher = stronger / more preferred TF binding
# Conditions: protein concentration: 100 nM; construct: GST-full length
# Protocol: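 Universal 'all 10-mer' protein binding microarrays (Agilent AMADID 015681) probed with GST-tagged S. cerevisiae TFs (full-length or DBD) made by in vitro transcription/translation (PURExpress), about 100-200 nM. Bound TF was detected with fluorescent anti-GST. Each ungapped 8-mer (which stands for itself and its reverse complement) is scored by the PBM enrichment score (E-score), a modified Wilcoxon-Mann-Whitney statistic from -0.5 to +0.5, computed with the Universal PBM Analysis Suite. Scale: above 0.35 generally sequence-specific binding.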
row,Sequence,PBM E-score
1,ACTAATGA,0.0791
2,TCCGCTCA,-0.245
3,ATTGAAAC,0.141
4,GGGTTACA,-0.0526
5,ACGTATTA,0.141
6,CACTCGTA,-0.148
7,CCCAGTCA,-0.37
8,CCGGATCC,0.372
9,ACCTGAAA,0.0786
10,AAGGGAGC,-0.143
11,ACTTCCGG,0.335
12,CAGCGGTC,-0.18
13,AAGCATGT,-0.0314
14,GATAAAGC,-0.00053
15,GTAGTCGA,-0.00551
16,AGTACATG,-0.0174
17,ACCTGACA,-0.0586
18,GGGTGTAC,-0.222
19,ATTACTGG,-0.0899
20,ACTATGTG,-0.0741
21,AAGGAGCA,-0.122
22,CACAATCC,0.0651
23,CTCGACAG,-0.146
24,ACTCACGA,-0.0488
25,ATTTTTAG,0.0507

row,Sequence,PBM E-score
1,CTGGTGTC,-0.0649
2,TCGTCGCA,-0.0269
3,CCAAACTA,-0.0721
4,GAGCTGCC,0.00086
5,CGGAAAGA,0.243
6,AACGAACT,0.0561
7,CCATAACC,-0.184
8,GACACTGC,-0.103
9,AAATGTCG,-0.037
10,AGCCAAAT,0.119
11,CCGTCTGC,0.003
12,TATTACAA,0.0425
13,ACAACGAG,-0.0614
14,ATGCGGTA,0.059
15,CTAGGGGA,-0.319
16,CAGTCACA,-0.0529
17,AATCTCAT,-0.032
18,CTGGATCA,-0.0847
19,AAATGGCG,-0.0657
20,CCTACGTA,-0.0164
21,CGAATTCA,0.198
22,TAGAACTA,0.132
23,CGGCAATA,0.29
24,AGCCAGGC,-0.172
25,ATGAGGCG,-0.0692

row,Sequence,PBM E-score
1,ATCGGTTG,0.0709
2,ACGATAGT,-0.0276
3,CTGGGGGC,-0.339
4,TGATCACA,0.0834
5,AGCAATGA,-0.0481
6,GGAGTTCA,0.147
7,AGCAACGG,0.186
8,AATGCACC,0.032
9,CATAGAGC,-0.267
10,CTGGAAGC,-0.26
11,AAAGCTAT,0.149
12,AATTAACC,0.167
13,ATAAGAAT,0.247
14,ATACGACA,-0.0307
15,ACATTACA,-0.0825
16,ACCAGTAA,0.195
17,AAAGGCCA,-0.297
18,AGCAACGC,0.0574
19,ACTGACTC,-0.218
20,GATCCATA,-0.0186
21,ACCCGGTA,0.183
22,TGCTTGAA,0.217
23,GAACGCCA,0.0016
24,GAGGTTCC,0.0805
25,CCTCTTGC,-0.175

row,Sequence,PBM E-score
1,CAAGTGAC,-0.0157
2,CTGAGGTC,-0.309
3,CTGGGTTA,-0.115
4,CGCGAGTA,0.106
5,CCACATTA,-0.126
6,ACGGAGGA,0.0483
7,AACGACGG,0.169
8,CCTCGGGC,0.0197
9,CATTGTGA,-0.164
10,GATGACAA,0.12
11,AGGCGCTC,-0.0822
12,GGCCTCAC,-0.0604
13,AAACTGTG,0.0324
14,ATCTGCTG,-0.027
15,ATATGCGA,0.0078
16,GCGAACAC,-0.0736
17,TAACTCAA,0.0996
18,CCTTGCAG,-0.2
19,CTCCCCCA,-0.323
20,CCAGGGGC,-0.382
21,CTCACCTC,-0.0895
22,TGAATCCA,0.117
23,CTGAACCA,-0.0303
24,AAAAAGTC,0.091
25,AACGACAT,0.133

row,Sequence,PBM E-score
1,AATCGTGC,0.206
2,GTCCAAAA,0.162
3,CAACGAGC,-0.265
4,AAGGCTGC,-0.0369
5,CTTTCAGA,0.0778
6,TGCAGACA,0.0602
7,GACCATGA,0.0105
8,CTAGTCGA,-0.0912
9,ACCAGACA,0.00548
10,CTATACCA,-0.0586
11,CGAGTCAG,0.0484
12,GGACGTAC,-0.17
13,AGTAGTAT,0.116
14,AACTTGAT,0.277
15,CACTCCAG,-0.079
16,ACAGCAGC,-0.0621
17,CAGCTGAG,-0.174
18,ACTTACCT,-0.211
19,CGCCAATA,-0.0727
20,CGACGGCG,-0.0312
21,AATGCCTA,-0.0279
22,GAAGTAAA,0.119
23,CTAGGCGC,-0.179
24,AGTGAGAC,-0.134
25,TCATGGGA,-0.0738

row,Sequence,PBM E-score
1,CGATGTTC,-0.138
2,GGTCCGGA,0.376
3,CTATACAA,0.0425
4,TAATAATA,0.217
5,GAACAAGA,0.169
6,GCGGCGCA,0.0894
7,ATTGGTGC,0.0123
8,GTTCTGAA,0.115
9,CGGAGCGC,0.107
10,CAGCACCA,-0.147
11,TAGGCTCA,-0.201
12,CAGATCCG,0.317
13,AAATAGCC,-0.0186
14,CACAACTG,-0.249
15,GGCAGCAC,-0.134
16,CTTGGAAC,-0.0214
17,CATTATCC,0.067
18,CACGGTAC,-0.0817
19,GCGTTCTA,-0.0208
20,AAAGATGG,-0.131
21,GAAGTATA,0.141
22,GAGCATGA,-0.182
23,CCTGCACC,-0.177
24,CGGTCTAA,0.135
25,CGGGCGTA,-0.13

# Quoted at random: seven records from the list, in no set order.
row,Sequence,PBM E-score
14,GATAAAGC,-0.00053
15,ATATGCGA,0.0078
16,AGTACATG,-0.0174
22,GAAGTAAA,0.119
15,CTAGGGGA,-0.319
15,CACTCCAG,-0.079
11,AGGCGCTC,-0.0822

# The results go on:

row,Sequence,PBM E-score
1,TCTTGACA,0.101
2,ACTAAGTG,0.035
3,GAGGAGCA,-0.0781
4,ATCGTTTC,0.119
5,AAAACTAG,0.0569
6,GCAAAGCC,-0.298
7,CCAGAACA,-0.178
8,AACCTGGT,-0.0294
9,ACTAGCCT,-0.0969
10,ACCAGGAA,0.00621
11,ACACCCCT,-0.165
12,CAATCTGA,-0.00836
13,CAGCTCAC,-0.153
14,CTTTGTCC,0.0996
15,ACCAACAG,-0.284
16,ACCCCGCC,0.038
17,CCCGCCCA,-0.0857
18,AAATGCTT,0.0617
19,AATCCGCC,-0.0628
20,CCGATCGG,0.253
21,CTCCATGC,-0.19
22,ACGTTAGT,-0.0893
23,CCCCTTCA,-0.322
24,TCAGCACA,0.00162
25,ACGGATGA,0.0817

row,Sequence,PBM E-score
1,ATCCAGAT,-0.0292
2,GGCTAGGA,-0.166
3,GTTCGGAA,0.402
4,AGTGGCGC,-0.194
5,GCGTACCA,-0.112
6,GGCAGACC,-0.217
7,GAGTCGGC,0.0905
8,AGGGTGTG,-0.226
9,CTCTTTCA,-0.0217
10,CGTCAGAA,-0.167
11,ACCTTCGT,-0.021
12,AACGTCGA,0.0544
13,CAAACGTG,0.0252
14,CACAATAG,0.0252
15,TAGCATAA,-0.0341
16,GGCCGGAA,0.338
17,ACGGTAGC,0.00911
18,CTCGCTTC,-0.0232
19,ACATATGG,-0.145
20,GGCGCAGA,0.0115
21,CTACAACC,-0.0932
22,ATCCCCCA,-0.372
23,GAACGCCC,-0.0103
24,ACTGGAAG,-0.127
25,GCCTAAGC,-0.0314

row,Sequence,PBM E-score
1,ACGAGCGC,-0.208
2,AATTTGGC,0.0884
3,AATTACGT,-0.0822
4,ATGTGATA,-0.0635
5,AAGACGGG,0.0214
6,GACCGTAA,0.0933
7,AGACGGAC,-0.086
8,CAGCTCTC,-0.127
9,CAGCAGTA,-0.0147
10,GCATTACC,-0.0836
11,TAGGACTA,-0.0313
12,AAATCTTG,-0.00799
13,AGGGTTTA,-0.0139
14,TCTTTAAA,0.229
15,ATTGAGGG,-0.244
16,ATAAGTAT,0.124
17,CCGCTCCC,-0.26
18,AGACTCAC,-0.118
19,CTTCGTTA,0.00966

# An excerpt of these results, with bars between the fields:
row | Sequence | PBM E-score
8 | AATGCACC | 0.032
4 | CGCGAGTA | 0.106
14 | AACTTGAT | 0.277
17 | CATTATCC | 0.067
13 | CAAACGTG | 0.0252
